These are yes or no findings as the source states them, for the method shown. Some entries that bind do so weakly or less than the wild type.
Target: T1, RANKL(全长RANKL) on transfected 293 cells (UniProt O14788)
T1 sequence (looked up): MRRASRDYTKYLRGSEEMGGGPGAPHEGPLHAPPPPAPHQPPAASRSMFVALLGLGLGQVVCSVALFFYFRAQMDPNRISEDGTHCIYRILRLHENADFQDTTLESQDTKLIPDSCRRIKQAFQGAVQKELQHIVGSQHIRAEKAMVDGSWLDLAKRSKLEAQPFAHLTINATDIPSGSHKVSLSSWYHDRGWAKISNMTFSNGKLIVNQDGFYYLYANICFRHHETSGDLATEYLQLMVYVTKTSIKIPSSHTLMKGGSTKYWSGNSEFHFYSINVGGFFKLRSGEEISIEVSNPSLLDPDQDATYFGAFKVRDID
Test: flow cytometry on 293 cells transfected with full-length RANKL

B1: 全人源抗RANKL抗体 BA05-2 (antibody, human IgG4 S228P, kappa, V domains shown)
VH: QVQLVESGGGLVKPGGSLRLSCAASGFTFSSYGMSWIRQAPGKGLEWVSGITGSGSSTYYADSAKGRFTISRDNAKNSLYLQMNSLRAEDTAVYYCARDPGTTVIMSWFDPWGQGTLVTVSS
VL: EIVMTQSPATLSLSPGERATLSCRASQSLRGRYLAWYQQKPGKAPKLLIYGASTRATGIPARFSGSGSGTDFTLTISSLQPEDFAVYYCQQYASSPRTFGQGTKVEIKR
- binding: binds
